Results are given in words; binding and its absence hold for the method and conditions named. In cells and extracts the contact can be indirect. Some entries that bind do so weakly or less than the wild type. Sequences can lack the tags named with a protein.
How the values were obtained:
Experiment in all cases: pull-down; GST or GST-tagged Tpk1, 2 or 3 bound to glutathione sepharose beads, incubated 2 h at 4°C with pre-cleared extracts of nitrogen-starved yeast cells expressing Gap1-HA; binding buffer PBS 1x, 0.05% Triton X-100, 0.1 mM DTT; washed three times with PBS-T; Western blot with HRP-coupled anti-HA antibody; only the target purified
[1] = biological target: T1, GST-tagged Tpk3, catalytic subunit of PKA (S. cerevisiae) (UniProt P05986)
T1 sequence: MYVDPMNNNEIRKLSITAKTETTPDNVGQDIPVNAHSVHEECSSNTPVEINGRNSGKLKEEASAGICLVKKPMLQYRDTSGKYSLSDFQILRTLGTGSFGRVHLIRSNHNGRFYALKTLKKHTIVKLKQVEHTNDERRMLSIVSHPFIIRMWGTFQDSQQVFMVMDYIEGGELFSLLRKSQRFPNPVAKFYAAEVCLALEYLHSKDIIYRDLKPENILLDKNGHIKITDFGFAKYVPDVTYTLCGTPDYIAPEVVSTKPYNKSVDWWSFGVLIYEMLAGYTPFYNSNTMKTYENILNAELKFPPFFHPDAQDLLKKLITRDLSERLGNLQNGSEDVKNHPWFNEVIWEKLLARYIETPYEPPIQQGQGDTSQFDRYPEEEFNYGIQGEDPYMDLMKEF

[2] = biological target: T2, GST-tagged Tpk1, catalytic subunit of PKA (S. cerevisiae) (UniProt P06244)
T2 sequence: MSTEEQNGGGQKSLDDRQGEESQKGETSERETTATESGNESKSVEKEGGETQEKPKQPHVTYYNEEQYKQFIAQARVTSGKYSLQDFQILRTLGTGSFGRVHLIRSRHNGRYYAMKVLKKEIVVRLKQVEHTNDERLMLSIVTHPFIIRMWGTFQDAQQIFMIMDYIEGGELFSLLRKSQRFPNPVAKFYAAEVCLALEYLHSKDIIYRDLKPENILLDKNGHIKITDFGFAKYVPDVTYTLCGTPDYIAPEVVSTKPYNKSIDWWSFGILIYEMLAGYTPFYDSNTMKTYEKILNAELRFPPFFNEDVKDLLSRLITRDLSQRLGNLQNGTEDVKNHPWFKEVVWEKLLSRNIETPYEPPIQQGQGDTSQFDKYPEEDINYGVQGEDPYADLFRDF

[3] = biological target: T3, GST-tagged Tpk2, catalytic subunit of PKA (S. cerevisiae) (UniProt P06245)
T3 sequence: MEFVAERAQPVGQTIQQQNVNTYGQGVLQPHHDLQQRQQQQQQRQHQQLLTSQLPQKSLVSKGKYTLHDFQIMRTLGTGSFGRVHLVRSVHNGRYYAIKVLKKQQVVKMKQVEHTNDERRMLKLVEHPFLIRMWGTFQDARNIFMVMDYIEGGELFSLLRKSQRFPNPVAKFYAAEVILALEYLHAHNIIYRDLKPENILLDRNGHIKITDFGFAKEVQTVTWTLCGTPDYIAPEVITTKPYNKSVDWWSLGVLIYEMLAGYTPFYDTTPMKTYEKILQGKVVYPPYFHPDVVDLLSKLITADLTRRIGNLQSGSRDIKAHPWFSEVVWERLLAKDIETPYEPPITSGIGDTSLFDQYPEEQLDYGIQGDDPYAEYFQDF

Measured: binding

B1: HA-tagged Gap1 amino acid transceptor (protein, UniProt P19145 1-602)
chain: MSNTSSYEKNNPDNLKHNGITIDSEFLTQEPITIPSNGSAVSIDETGSGSKWQDFKDSFKRVKPIEVDPNLSEAEKVAIITAQTPLKHHLKNRHLQMIAIGGAIGTGLLVGSGTALRTGGPASLLIGWGSTGTMIYAMVMALGELAVIFPISGGFTTYATRFIDESFGYANNFNYMLQWLVVLPLEIVSASITVNFWGTDPKYRDGFVALFWLAIVIINMFGVKGYGEAEFVFSFIKVITVVGFIILGIILNCGGGPTGGYIGGKYWHDPGAFAGDTPGAKFKGVCSVFVTAAFSFAGSELVGLAASESVEPRKSVPKAAKQVFWRITLFYILSLLMIGLLVPYNDKSLIGASSVDAAASPFVIAIKTHGIKGLPSVVNVVILIAVLSVGNSAIYACSRTMVALAEQRFLPEIFSYVDRKGRPLVGIAVTSAFGLIAFVAASKKEGEVFNWLLALSGLSSLFTWGGICICHIRFRKALAAQGRGLDELSFKSPTGVWGSYWGLFMVIIMFIAQFYVAVFPVGDSPSAEGFFEAYLSFPLVMVMYIGHKIYKRNWKLFIPAEKMDIDTGRREVDLDLLKQEIAEEKAIMATKPRWYRIWNFWC
binds: all assays above
